Assay results reported in publication PMC9378687.
Numbering of substitutions follows the chain as printed. Results are given in words; binding and its absence hold for the method and conditions named. In cells and extracts the contact can be indirect. Some results given as binding are weak or reduced against the parent protein; the word gives no strength. Blank lines part the entries; values can stand above or below the binder they belong to.

Amino acid sequences for entries named in this document (tags omitted).
UniProt P19484: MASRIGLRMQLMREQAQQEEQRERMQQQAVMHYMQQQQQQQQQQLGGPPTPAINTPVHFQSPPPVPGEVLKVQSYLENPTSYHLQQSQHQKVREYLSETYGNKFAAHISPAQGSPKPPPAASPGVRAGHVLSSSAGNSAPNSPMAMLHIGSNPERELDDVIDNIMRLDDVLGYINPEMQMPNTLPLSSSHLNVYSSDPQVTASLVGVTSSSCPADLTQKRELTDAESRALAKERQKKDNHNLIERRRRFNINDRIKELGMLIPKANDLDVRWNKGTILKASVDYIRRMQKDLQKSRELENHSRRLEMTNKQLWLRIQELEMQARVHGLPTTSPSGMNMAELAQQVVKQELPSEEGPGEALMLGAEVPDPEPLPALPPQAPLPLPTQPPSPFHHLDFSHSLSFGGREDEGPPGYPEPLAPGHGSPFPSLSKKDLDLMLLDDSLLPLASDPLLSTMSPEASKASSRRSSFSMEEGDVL

Target: transcription factor EB (TFEB) (human (endogenous in MGC803)) (UniProt P19484)
Experiment: co-IP; whole-cell lysates of MGC803 cells (control, or overexpressing native or mutant HPA); Universal Magnetic Co-IP Kit, IP with anti-TFEB monoclonal antibody and protein-G beads; western blot for TFEB, phospho-TFEB (Ser211), HPA, 14-3-3

- binding: binds
B1: heparanase (HPA), wild type (enzyme, UniProt Q9Y251 36-543)
chain: QDVVDLDFFTQEPLHLVSPSFLSVTIDANLATDPRFLILLGSPKLRTLARGLSPAYLRFGGTKTDFLIFDPKKESTFEERSYWQSQVNQDICKYGSIPPDVEEKLRLEWPYQEQLLLREHYQKKFKNSTYSRSSVDVLYTFANCSGLDLIFGLNALLRTADLQWNSSNAQLLLDYCSSKGYNISWELGNEPNSFLKKADIFINGSQLGEDFIQLHKLLRKSTFKNAKLYGPDVGQPRRKTAKMLKSFLKAGGEVIDSVTWHHYYLNGRTATKEDFLNPDVLDIFISSVQKVFQVVESTRPGKKVWLGETSSAYGGGAPLLSDTFAAGFMWLDKLGLSARMGIEVVMRQVFFGAGNYHLVDENFDPLPDYWLSLLFKKLVGTKVLMASVQGSKRRKLRVYLHCTNTDNPRYKEGDLTLYAINLHNVTKYLRLPYPFSNKQVDKYLLRPLGPHGLLSKSVQLNGLTLKMVDDQTLPPLMEKPLRPGSSLGLPAFSYSFFVIRNAKVAACI

- binding: binds
B2: heparanase (HPA) E225/343A double mutant (enzyme, UniProt Q9Y251 36-543)
chain: B1 chain with E190A, E308A
